# Source: PubChem BioAssay AID1439 (NMMLSC, 2008)
# Sequences of proteins named here, by UniProt entry; tags and fusion partners are left off.
# UniProt P09471, whole entry, looked up: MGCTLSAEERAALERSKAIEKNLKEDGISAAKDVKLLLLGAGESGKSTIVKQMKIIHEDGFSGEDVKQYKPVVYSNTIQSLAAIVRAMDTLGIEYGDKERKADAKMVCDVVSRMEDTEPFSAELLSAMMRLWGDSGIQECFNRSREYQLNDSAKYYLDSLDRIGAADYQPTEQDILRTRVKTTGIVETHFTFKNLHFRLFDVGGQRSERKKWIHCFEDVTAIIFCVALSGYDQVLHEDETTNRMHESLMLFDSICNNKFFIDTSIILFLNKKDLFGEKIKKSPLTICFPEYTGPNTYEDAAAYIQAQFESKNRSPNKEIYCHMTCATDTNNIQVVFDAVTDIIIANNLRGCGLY
# The whole screen tested about 220,000 compounds, of which about 770 (0.35%) were called active. The inconclusive results got no clear call from the source; some entries with a clear call stand among them for comparison. Cut-off read from the data, not from the text of the source: active = binding response below about 49% or above about 150%; inconclusive = no clear call, values can overlap the other calls; inactive = in between.
# Target: Guanine nucleotide-binding protein G(o) subunit alpha (Homo sapiens) (UniProt P09471)
# Assay: RGS7-Galphao binding modulators, primary screen, biochemical, multiplexed bead flow cytometry (AID 1439);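 note: fluorescent Galphao held in activated GDP-AlF4 state binding bead-coupled RGS7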
# Settings: at 10 µM, actives lie on both sides
row,SMILES,binding response (% of control)
1,COC(=O)c1ccc(-n2c(C)cc(/C=N/Nc3nc(C)cc(=O)[nH]3)c2C)cc1,inconclusive: 107%
2,COc1ccccc1OCCCC(=O)Nc1ccc([N+](=O)[O-])cc1Br,inactive: 104%
3,CCOCC(=O)OCC(=O)NC12CC3CC(CC(C3)C1)C2,inconclusive: 121%
4,NS(=O)(=O)c1ccc(-c2ccc(/C=N/NC(=O)c3ccccc3O)o2)cc1,inconclusive: 108%
5,Cc1cc(C(=O)COC(=O)c2ccc(CO)cc2)c(C)n1CC1COc2ccccc2O1 (stereo not drawn),inactive: 99%
6,CC(=O)c1ccc(S(=O)(=O)N2CCN(CC#N)CC2)cc1,inconclusive: 104%
7,CC1=C(C(=O)OCCOc2ccccc2)C(c2ccsc2)NC(=O)N1C (stereo not drawn),inactive: 99.2%
8,COc1ccc(-n2c(=O)c3ccccc3n(Cc3cccc(C)c3)c2=O)cc1OC,inactive: 81.9%
9,COc1ccc(C2/C=C\CNCC(=O)N2Cc2ccc(F)cc2)cc1 (stereo not drawn),inconclusive: 98.1%
10,N=c1oc2ccc3ccccc3c2cc1C(N)=S,inactive: 99.3%
11,CNCC(=O)N(CC(C)C)c1c(N)n(CC(C)C)c(=O)[nH]c1=O,inconclusive: 120%
12,CN(C)CCC(=O)c1cccc(Br)c1,inactive: 94.6%
13,COc1ccc(NC(=S)NCCCN2CCOCC2)cc1,inconclusive: 125%
14,COCCn1c(=O)[nH]c2cc(C(=O)Nc3cccc(F)c3)ccc2c1=O,inconclusive: 113%
15,CCC1CCCCN1S(=O)(=O)c1ccc(S(=O)(=O)N2CCN(S(=O)(=O)CC)CC2)cc1 (stereo not drawn),inactive: 97%
16,COCCNC(=O)/C(C#N)=C/c1ccc(O)cc1,inconclusive: 149%
17,Cc1[nH]nc2c1C(c1cccs1)C1=C(CCCC1=O)N2 (stereo not drawn),inconclusive: 96.7%
18,CC(C)[C@H](N)c1nnc(SC/C=C/c2ccccc2)o1,inactive: 92.2%
19,COc1cc(/C=N/NC(=O)C(=O)/C=C2\NC(C)(C)Cc3ccccc32)ccc1O,inconclusive: 145%
20,Cc1ncc([N+](=O)[O-])n1CC(=O)N/N=C/c1ccccc1F,inactive: 104%
21,COCCNC(=S)Nc1ccc(N2CCCCC2)cc1,inconclusive: 80.5%
22,CC1(C)CC(=O)C=C(NCCN2CCN(C(=S)NC3CCCCC3)CC2)C1,inconclusive: 59.4%

row,SMILES,binding response (% of control)
1,Cc1onc(-c2ccccc2)c1C(=O)c1ccccc1,inconclusive: 63%
2,COc1cc2c(cc1OC)CN(C1CC(=O)N(c3c(C)cccc3C)C1=O)CC2 (stereo not drawn),inactive: 108%
3,COc1ccc(C(=O)NCC(=O)N=Nc2c(O)n(C)c3ccccc23)cc1OC,inconclusive: 89.3%
4,Cc1nc(N)nc(N)c1/C=C/C(C)(C)c1ccc(Cl)cc1,inactive: 96.8%
5,CCOc1cc(/C=C2/NC(=O)N(CC(=O)Nc3cccc(C)c3)C2=O)ccc1OCC(N)=O,inconclusive: 91.4%
6,Cn1c(=O)cc2c3c(c(N4CCCCC4)ccc31)C(=O)c1ccccc1-2,inconclusive: 120%
7,COc1ccc(NC(=O)C(c2cc3c(cc2[N+](=O)[O-])OCO3)N(C)c2ccccc2)cc1 (stereo not drawn),inactive: 101%
8,CC(C)c1ccc(NC(=O)C[n+]2ccn(C3=C([O-])c4ccccc4C3=O)c2)cc1,inconclusive: 113%
9,COc1ccc(CCNC(=O)c2cc(-c3cc(Cl)ccc3O)n[nH]2)cc1OC,inconclusive: 87.8%
10,C=CCN=C1S/C(=C/c2ccc([N+](=O)[O-])cc2)C(=O)N1CC=C,inconclusive: 3.99%
11,CCOC(=O)N1C/C(=C\c2ccccc2)C(=O)/C(=C/c2ccccc2)C1,inconclusive: 115%
12,Cc1ccc(NC(=O)[C@@H]2CCCN2S(=O)(=O)c2ccccc2F)cc1,inconclusive: 85.7%
13,CN(C)c1ccc(C(=O)OCC(=O)N2CCOCC2)cc1,inconclusive: 102%
14,O=[N+]([O-])c1cccc(S(=O)(=O)[N-]c2nc3ccccc3nc2-n2cc[n+](Cc3ccccc3)c2)c1,inconclusive: 87%
15,C/C(=N\N1CCN(c2ccccc2)CC1)c1cccs1,inconclusive: 84.7%
16,CC(=O)c1c(C)[nH]c(C(=O)OCC(=O)Nc2sc3c(c2C#N)CCC(C)C3)c1C (stereo not drawn),inconclusive: 95.1%
17,CCN(CC)S(=O)(=O)c1ccc(C)c(NC(=O)CN2CCN(C)CC2)c1,inconclusive: 92.5%
18,N#Cc1cnc2c(-c3ccccc3)c(-c3ccccc3)nn2c1N,inconclusive: 119%
19,COc1cc(/C=C2\SC(=S)N(NS(=O)(=O)c3ccccc3)C2=O)cc(OC)c1OC,inconclusive: 102%
20,C[C@]12CC[C@@H]3c4ccc(O[C@@H]5O[C@H](C(=O)O)[C@@H](O)[C@H](O)[C@H]5O)cc4CC[C@H]3[C@@H]1C[C@@H](O)[C@@H]2O,inconclusive: 123%
21,O=C1NC2=C(C(=O)OC2)C(c2ccc(OC(F)(F)F)cc2)N1 (stereo not drawn),inconclusive: 90.1%
22,C=CCOC(=O)C1=C(C)OC(N)=C(C#N)C1c1ccco1 (stereo not drawn),inconclusive: 110%

# Quoted from the listing for reference:
row,SMILES,binding response (% of control)
9,COc1ccc(CCNC(=O)c2cc(-c3cc(Cl)ccc3O)n[nH]2)cc1OC,inconclusive: 87.8%
10,C=CCN=C1S/C(=C/c2ccc([N+](=O)[O-])cc2)C(=O)N1CC=C,inconclusive: 3.99%
11,CCOC(=O)N1C/C(=C\c2ccccc2)C(=O)/C(=C/c2ccccc2)C1,inconclusive: 115%
12,Cc1ccc(NC(=O)[C@@H]2CCCN2S(=O)(=O)c2ccccc2F)cc1,inconclusive: 85.7%
13,CN(C)c1ccc(C(=O)OCC(=O)N2CCOCC2)cc1,inconclusive: 102%

# Next structures follow.

row,SMILES,binding response (% of control)
1,COC(=O)c1sc(N2CCN(c3ccc(Cl)cc3)CC2)nc1N,inconclusive: 95.7%
2,O=C(CCCO)NC1Cc2ccccc2C1,inconclusive: 108%
3,Cc1nc2ccccc2c(=O)n1/N=C/c1ccco1,inconclusive: 106%
4,Cc1cc(C)cc(NC(=S)NN)c1,inactive: 92.6%
5,CCC/C(=N\NC(=O)CCC(=O)NCc1ccccc1)c1ccccc1,inconclusive: 119%
6,O=C1C(Cc2ccccc2O)NC(=S)N1c1ccccc1 (stereo not drawn),inconclusive: 117%
7,C/C=C/C=C\C(=O)Nc1cccc(C2=NOC3(C2)C[C@@H](C(N)=O)N(C(=O)c2cc([N+](=O)[O-])cc([N+](=O)[O-])c2C)C3)c1 (stereo partly drawn),inconclusive: 116%
8,CCOc1cc(NC(=O)c2ccccn2)c(OCC)cc1NC(=O)c1ccc(OC)cc1,inactive: 107%
9,Cn1c(=S)n(/N=C/c2cccs2)c2ccccc21,inconclusive: 102%
10,COc1cccc(C2c3c(-c4ccccc4O)n[nH]c3C(=O)N2Cc2ccco2)c1 (stereo not drawn),inconclusive: 107%
11,O=C(NCCCO)c1ccc2nc(-c3ccco3)c(-c3ccco3)nc2c1,inconclusive: 61%
12,CCOc1cc(S(=O)(=O)NCc2ccncc2)ccc1Cl,inactive: 98.5%
13,COc1ccc(Nc2nc(N3CCN(C)CC3)nc3ccccc23)c(OC)c1,inconclusive: 98.2%
14,Cc1cc(OC(=O)c2ccc(S(=O)(=O)N3CCCCC3)cc2)c([N+](=O)[O-])c(=O)[nH]1,inactive: 102%
15,COc1ccc(-c2ncccc2OC(=O)C23CC4CC(CC(C4)C2)C3)cc1,inactive: 98.1%
16,Cc1ccc(NC(=O)/C(C#N)=N/Nc2ccc(C(=O)O)cc2)c(C)c1,inconclusive: 91.8%
17,CCOC(=O)c1cn(Cc2cccc(Cl)c2)c2cc(C)nn2c1=O,inconclusive: 97.8%
18,Cc1[nH]n(C)c(=O)c1C(=O)c1c(-c2ccccc2Cl)noc1C,inconclusive: 46.8%
19,COc1ccc(OCCC(=O)OCC(=O)NCCc2ccccc2)cc1,inconclusive: 99.5%
20,N#CC(=C=[N-])c1nc2ccccc2nc1-[n+]1cccc(NC(=O)c2cccs2)c1,inconclusive: 106%
21,CC(C)(C)S(=O)(=O)c1cnc(N2CCOCC2)nc1N,inconclusive: 84.1%
22,Cc1nc(SCC(=O)NC(=O)NCCC(C)C)c2c(-c3cccs3)csc2n1,inactive: 97.7%

row,SMILES,binding response (% of control)
1,COc1ccc(C(O)P(=O)(OCc2ccccc2)c2ccc(N(C)C)cc2)cc1 (stereo not drawn),inconclusive: 258%
2,CCNC(=O)NCCNC(=O)c1cc(OCC(F)(F)F)ccc1OCC(F)(F)F,inconclusive: 70.5%
3,O=C(CSc1ccc(-c2ccco2)nn1)N1CCCCCC1,inconclusive: 95.6%
4,COc1ccc(NS(=O)(=O)c2cccc(C(=O)N/N=C/c3cn(-c4ccccc4)nc3-c3ccc(OC)cc3)c2)cc1,inconclusive: 93.7%
5,CC(C)(C)c1cnnn1-c1ccc([N+](=O)[O-])cc1,inconclusive: 97.8%
6,Oc1ccc(N=Nc2ccc3c(c2)OCCO3)c2cccnc12,inconclusive: 36.7%
7,O=S(=O)(NCc1csc(-c2cccs2)n1)c1ccc(Cl)cc1,inconclusive: 149%
8,CC(=O)c1ccc(NC(=O)c2cc(Cl)nc3ccccc23)cc1,inconclusive: 124%
9,CC1=C(C(=O)OC2CCCC2)C(c2coc3ccccc3c2=O)C2=C(CC(C)(C)CC2=O)N1 (stereo not drawn),inconclusive: 172%
10,COC1CC(C)NC(=S)N1 (stereo not drawn),inconclusive: 186%
11,CC1CCCC(NC(=O)c2ccc3c(SCC(=O)O)c4c(nc3c2)CCC4)C1C (stereo not drawn),inconclusive: 112%
12,COc1ccccc1NCC(=O)N/N=C/c1sccc1C,inconclusive: 80.3%
13,Cc1c(C(=O)OC2CCCCC2)[nH]c2c1C(=O)CC(C)(C)C2,inactive: 102%
14,CC/C(=N\NC(C)=O)c1ccc(OC(F)F)cc1,inconclusive: 133%
15,CCn1c(C)cc2c(c1=O)C(c1ccc3c(c1)OCO3)C(C#N)=C(N)O2 (stereo not drawn),inactive: 114%
16,COc1ccc(C(=O)Nc2cccc(-c3ccc4nncn4n3)c2)cc1,inconclusive: 120%
17,N#Cc1cnn(-c2ccccc2)c1NC(=O)CN1CCOCC1,inconclusive: 93.2%
18,CCOc1ccc2nc(NC(=O)C3CCCN(S(=O)(=O)c4c(C)noc4C)C3)sc2c1 (stereo not drawn),inconclusive: 50%
19,CC(=O)c1ccc(NC(=O)C(Cc2ccccc2)n2cccc2)cc1 (stereo not drawn),inconclusive: 89.8%
20,O=C(Nc1ccc(Br)cc1)N1CCCCC1,inactive: 103%
21,CCOC(=O)C1CCN(C(=O)C2(NC(=O)Nc3cccc(F)c3)CCCCC2)CC1,inconclusive: 116%
22,Cc1cc(C)nc(/N=C(\N)Nc2cccc(OCc3ccccc3)c2)n1,inconclusive: 98.7%
